Experimental data from PMC3991325.
Results are given in words; binding and its absence hold for the method and conditions named. In cells and extracts the contact can be indirect. A yes stands for co-enrichment or nearness to the bait. Other partners may have been found.

Target: T1, Rrp5-HTP (budding yeast), Q05022
T1 chain: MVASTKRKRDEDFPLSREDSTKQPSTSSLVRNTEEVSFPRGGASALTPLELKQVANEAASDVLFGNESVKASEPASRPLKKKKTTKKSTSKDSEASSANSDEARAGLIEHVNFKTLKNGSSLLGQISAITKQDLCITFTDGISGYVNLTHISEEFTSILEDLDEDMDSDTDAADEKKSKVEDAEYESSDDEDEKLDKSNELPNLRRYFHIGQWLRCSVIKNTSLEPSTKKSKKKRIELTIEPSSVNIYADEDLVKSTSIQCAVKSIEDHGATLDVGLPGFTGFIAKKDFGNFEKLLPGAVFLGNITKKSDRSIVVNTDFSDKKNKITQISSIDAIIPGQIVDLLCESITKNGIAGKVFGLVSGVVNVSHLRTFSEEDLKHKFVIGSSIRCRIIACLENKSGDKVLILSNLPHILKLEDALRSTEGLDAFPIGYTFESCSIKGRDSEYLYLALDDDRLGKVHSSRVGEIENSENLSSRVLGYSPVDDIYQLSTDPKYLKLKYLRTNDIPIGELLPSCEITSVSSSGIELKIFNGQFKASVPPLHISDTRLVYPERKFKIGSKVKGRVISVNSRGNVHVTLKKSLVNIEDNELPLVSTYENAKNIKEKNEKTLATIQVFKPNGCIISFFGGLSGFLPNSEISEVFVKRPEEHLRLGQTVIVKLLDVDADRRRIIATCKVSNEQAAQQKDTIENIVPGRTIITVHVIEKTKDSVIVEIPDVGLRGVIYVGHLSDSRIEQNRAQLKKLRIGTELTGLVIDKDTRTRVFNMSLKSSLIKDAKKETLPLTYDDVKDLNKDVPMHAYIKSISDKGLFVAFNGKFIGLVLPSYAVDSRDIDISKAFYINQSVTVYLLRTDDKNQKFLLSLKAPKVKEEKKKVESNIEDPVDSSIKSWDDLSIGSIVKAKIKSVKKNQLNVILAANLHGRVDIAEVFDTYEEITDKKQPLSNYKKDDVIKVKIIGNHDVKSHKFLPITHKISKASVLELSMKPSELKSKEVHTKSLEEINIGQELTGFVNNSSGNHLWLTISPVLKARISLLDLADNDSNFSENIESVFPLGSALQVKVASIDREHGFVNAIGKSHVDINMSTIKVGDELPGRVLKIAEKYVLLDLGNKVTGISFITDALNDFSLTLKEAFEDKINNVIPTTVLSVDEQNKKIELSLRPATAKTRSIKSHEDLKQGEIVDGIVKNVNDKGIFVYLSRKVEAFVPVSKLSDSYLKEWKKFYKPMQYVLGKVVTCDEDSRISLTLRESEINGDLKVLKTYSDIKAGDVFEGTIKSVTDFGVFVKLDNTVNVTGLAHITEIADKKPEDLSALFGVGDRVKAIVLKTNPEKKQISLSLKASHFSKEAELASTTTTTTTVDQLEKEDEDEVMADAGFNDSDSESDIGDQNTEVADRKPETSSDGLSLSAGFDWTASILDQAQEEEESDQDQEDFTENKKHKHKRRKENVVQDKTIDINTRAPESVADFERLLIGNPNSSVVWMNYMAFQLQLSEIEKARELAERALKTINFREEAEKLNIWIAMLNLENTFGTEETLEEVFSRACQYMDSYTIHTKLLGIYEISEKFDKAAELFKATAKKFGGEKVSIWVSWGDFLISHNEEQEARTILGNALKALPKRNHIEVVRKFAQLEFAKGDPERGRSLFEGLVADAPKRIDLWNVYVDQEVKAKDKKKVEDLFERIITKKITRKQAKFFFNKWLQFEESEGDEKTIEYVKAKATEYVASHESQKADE
Assay: affinity purification with mass spectrometry; Rrp5-HTP bound to an IgG column, RNase treatment, brief formaldehyde crosslinking on the column, washing under denaturing conditions (8 M urea), release by brief decrosslinking and SDS; the material migrating above Rrp5 in SDS-PAGE analysed by mass spectrometry; Brr2 as control bait
Details: remark: other sources report otherwise

binding: binds
B1: Rix1, P38883 1-763 (protein)
chain: MSEEFIAVSTLARNLEIAKGNEFHTILATLRSPVYINEQLLKSELSFLVTKILKLIRSGNDFDLWKGCHTSVVTCAYNPLVLSTHGGQLLAAIYSRLEQKTGFYSSVISSSHGKQLFNTLISSVAIIIDLMKNKPTLSREALVPKLKAIIPTLITLSQYEPELVLPVLQRILKRNTTTFKPFTNKFRTVLINLIISDYASLGTKTQRLVCENFAYLHLLKIQVSDTSDDETQAHHKIYADSNWRTGLMSILSQFKPIIQLCGEILDFEQDNELYKLIKSLPVIDESNNKEEFLPSLKLDFNAPLTLWEIPQRLSLLADMLVAFISLPTPFPIRVPLGGINSLCEVLLGVSNKYLPLKKELRHDNELNGVINTILPQIQFQGIRLWEIMVSKYGKCGLSFFEGILSSIELFIPLKKKSNNEIDFNVVGSLKFEFATVFRLVNMILSHLGHQLNIISVISQLIEVALFLSHDKTLIDSLFKNRKSIMKQQTKTKQSKRSKSAEGAFSDIYTHPELFVCKNSMNWFNEINDFFITALNNWILPSTPHIQILKYSITQSLRLKERFGYIPESFVNLLRCEVLHPGSERVSILPIAISLLKNINDDMFELLCHPKVPVGMVYQLHKPLDLGEDGEVRDDINKKEVETNESSSNANTGLETLKALENLENVTIPEPKHEVPKVVDDTAIFKKRSVEEVIERESTSSHKKVKFVEETTVDNGEELIVKKAVSQTKEEEKPMEDSEDEEQEEFEIPAIELSDDEEEEEEEE
